Test results taken from the supplement of paper PMC10849652.
The list shows a part of the results.

By UniProt entry, the sequences of proteins in these tests, tags left out. Where a name states a change or a piece, a line headed by the entry shows the natural chain unless it says otherwise.
UniProt P29373: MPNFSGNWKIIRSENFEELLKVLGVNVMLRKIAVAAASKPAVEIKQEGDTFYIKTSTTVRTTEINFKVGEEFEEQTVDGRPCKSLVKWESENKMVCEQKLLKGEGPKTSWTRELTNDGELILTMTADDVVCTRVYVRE
UniProt A8TX70: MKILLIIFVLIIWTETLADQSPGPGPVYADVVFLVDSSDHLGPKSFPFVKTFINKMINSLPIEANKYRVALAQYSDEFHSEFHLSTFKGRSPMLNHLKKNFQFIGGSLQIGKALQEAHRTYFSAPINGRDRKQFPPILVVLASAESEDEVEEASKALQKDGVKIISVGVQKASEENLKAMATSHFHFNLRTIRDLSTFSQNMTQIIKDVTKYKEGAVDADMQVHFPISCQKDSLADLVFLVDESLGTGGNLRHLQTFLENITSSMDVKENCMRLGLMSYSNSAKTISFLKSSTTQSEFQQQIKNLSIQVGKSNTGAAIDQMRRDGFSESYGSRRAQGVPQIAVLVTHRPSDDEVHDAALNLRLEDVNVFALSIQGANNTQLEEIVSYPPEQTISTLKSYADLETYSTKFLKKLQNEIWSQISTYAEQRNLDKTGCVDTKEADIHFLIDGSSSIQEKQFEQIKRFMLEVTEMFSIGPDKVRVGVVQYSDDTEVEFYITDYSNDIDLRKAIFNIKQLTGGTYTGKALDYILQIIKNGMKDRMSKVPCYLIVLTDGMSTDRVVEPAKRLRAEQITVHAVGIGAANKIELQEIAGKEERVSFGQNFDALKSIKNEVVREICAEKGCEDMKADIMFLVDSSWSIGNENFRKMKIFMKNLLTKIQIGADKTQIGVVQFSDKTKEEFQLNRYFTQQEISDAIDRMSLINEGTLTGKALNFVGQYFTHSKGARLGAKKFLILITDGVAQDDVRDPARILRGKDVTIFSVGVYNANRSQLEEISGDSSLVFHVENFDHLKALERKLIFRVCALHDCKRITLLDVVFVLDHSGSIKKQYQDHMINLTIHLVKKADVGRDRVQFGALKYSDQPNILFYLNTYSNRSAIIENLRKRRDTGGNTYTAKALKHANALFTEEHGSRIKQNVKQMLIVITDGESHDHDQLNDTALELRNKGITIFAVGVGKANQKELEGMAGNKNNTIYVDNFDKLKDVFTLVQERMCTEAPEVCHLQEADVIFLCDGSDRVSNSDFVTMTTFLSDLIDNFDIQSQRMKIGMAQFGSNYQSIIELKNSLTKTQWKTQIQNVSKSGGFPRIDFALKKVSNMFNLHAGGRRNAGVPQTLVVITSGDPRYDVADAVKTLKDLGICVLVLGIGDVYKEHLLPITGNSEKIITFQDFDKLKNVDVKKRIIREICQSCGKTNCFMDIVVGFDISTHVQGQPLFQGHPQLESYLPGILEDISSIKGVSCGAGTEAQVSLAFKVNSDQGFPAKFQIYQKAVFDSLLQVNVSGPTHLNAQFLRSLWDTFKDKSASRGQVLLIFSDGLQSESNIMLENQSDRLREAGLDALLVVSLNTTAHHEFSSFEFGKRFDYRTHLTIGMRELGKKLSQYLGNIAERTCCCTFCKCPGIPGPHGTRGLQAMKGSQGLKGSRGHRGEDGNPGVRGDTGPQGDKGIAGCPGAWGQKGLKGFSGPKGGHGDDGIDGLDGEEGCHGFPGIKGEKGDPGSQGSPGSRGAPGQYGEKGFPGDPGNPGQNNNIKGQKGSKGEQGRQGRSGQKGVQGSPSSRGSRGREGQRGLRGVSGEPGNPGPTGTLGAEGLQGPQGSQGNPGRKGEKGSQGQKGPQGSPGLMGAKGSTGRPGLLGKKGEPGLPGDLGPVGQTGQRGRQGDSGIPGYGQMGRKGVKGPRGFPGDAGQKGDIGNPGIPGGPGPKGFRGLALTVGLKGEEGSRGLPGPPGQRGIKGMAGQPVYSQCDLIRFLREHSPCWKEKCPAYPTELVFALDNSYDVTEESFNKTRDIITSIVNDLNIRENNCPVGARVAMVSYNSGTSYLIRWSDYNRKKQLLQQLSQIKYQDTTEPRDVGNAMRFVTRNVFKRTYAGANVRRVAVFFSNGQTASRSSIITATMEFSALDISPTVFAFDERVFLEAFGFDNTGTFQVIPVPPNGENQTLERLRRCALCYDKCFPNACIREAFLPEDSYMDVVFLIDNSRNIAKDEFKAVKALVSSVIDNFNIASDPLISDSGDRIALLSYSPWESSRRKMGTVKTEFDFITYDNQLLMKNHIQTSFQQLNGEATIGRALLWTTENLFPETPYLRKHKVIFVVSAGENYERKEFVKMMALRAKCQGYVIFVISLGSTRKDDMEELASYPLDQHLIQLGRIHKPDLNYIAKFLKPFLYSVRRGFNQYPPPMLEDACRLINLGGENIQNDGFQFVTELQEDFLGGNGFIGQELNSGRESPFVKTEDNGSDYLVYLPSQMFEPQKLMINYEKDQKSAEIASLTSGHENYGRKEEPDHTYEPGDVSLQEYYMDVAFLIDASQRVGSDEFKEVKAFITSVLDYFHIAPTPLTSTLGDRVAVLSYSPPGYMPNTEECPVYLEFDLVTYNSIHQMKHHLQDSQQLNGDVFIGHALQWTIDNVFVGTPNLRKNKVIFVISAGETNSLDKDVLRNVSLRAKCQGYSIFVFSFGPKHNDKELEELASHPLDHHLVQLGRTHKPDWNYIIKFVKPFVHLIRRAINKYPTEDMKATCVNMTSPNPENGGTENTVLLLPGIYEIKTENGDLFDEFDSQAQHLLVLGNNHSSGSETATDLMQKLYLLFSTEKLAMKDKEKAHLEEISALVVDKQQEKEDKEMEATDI
UniProt Q9BR76, whole entry, looked up: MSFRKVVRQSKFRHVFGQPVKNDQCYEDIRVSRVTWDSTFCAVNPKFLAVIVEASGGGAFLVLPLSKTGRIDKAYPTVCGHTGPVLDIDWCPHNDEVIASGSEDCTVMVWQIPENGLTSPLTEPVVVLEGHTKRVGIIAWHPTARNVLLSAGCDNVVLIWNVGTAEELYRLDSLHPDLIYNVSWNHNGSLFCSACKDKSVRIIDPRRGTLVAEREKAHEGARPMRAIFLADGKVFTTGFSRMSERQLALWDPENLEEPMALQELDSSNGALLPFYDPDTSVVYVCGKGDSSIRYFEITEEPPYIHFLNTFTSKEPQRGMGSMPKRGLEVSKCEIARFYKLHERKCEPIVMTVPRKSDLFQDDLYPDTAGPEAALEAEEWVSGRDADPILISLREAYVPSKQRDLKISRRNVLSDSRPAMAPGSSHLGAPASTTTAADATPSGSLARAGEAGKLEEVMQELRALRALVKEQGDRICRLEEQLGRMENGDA
UniProt Q9GZY4: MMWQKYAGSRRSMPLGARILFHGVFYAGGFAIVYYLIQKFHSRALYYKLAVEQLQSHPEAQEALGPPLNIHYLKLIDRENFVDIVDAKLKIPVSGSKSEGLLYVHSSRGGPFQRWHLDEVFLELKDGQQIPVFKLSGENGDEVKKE
UniProt O95628: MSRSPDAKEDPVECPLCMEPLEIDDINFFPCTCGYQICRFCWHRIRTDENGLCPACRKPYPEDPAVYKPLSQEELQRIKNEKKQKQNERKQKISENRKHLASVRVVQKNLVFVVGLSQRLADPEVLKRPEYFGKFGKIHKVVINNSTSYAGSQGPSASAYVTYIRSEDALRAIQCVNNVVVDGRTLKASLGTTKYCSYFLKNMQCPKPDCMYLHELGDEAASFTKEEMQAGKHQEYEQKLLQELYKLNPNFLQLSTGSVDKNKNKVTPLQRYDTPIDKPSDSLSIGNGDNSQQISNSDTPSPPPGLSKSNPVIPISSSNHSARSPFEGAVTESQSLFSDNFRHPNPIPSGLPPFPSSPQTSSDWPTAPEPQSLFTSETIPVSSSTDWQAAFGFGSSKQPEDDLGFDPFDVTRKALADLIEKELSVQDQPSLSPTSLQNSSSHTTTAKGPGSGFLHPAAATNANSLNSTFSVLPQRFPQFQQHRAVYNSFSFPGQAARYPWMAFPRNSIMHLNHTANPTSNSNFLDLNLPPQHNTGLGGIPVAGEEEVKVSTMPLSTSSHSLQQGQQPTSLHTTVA
UniProt Q7L5N1: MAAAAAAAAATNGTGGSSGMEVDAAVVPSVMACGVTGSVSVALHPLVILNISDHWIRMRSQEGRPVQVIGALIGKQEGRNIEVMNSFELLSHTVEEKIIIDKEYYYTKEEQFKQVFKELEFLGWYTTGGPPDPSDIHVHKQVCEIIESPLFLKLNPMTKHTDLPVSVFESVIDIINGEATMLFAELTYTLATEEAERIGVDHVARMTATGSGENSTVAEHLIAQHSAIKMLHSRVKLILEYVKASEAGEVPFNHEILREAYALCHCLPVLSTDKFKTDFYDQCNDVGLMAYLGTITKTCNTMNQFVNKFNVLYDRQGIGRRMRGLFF

Tests used:
Experiment in all cases: log2 fold change, soluble protein after heating vs DMSO (PISA); higher = thermal stabilisation; K562 lysate, 10 uM; active = over 0.2 and 3.5 SD of the protein, either way, in both replicates (recomputed)
vemurafenib = compound: CCCS(=O)(=O)Nc1ccc(F)c(C(=O)c2c[nH]c3ncc(-c4ccc(Cl)cc4)cc23)c1F [vemurafenib]
Outline: (§1)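 Pellets of K562 cells were dounce-homogenised in PBS pH 7.4 with 1 mM MgCl2, and the crude extract was held at 1 mg/mL protein for a 30 min treatment with 10 μM compound. Aliquots were heated for 3 min over 48°C-58°C and pooled before NP-40 was added to 0.5% at 4°C. The supernatant from 21,000xg for 90 min was quantified by TMTpro 16plex LC-MS/MS with channel sums equalised. Values are reported from duplicates as log-two fold change in thermal stability relative to solvent controls.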

[1] = compound: CCCS(=O)(=O)Nc1ccc(F)c(C(=O)c2c[nH]c3ncc(Cl)cc23)c1F
Outline: as §1

barasertib = compound: CCN(CCCOc1ccc2c(Nc3cc(CC(=O)Nc4cccc(F)c4)[nH]n3)ncnc2c1)CCOP(=O)(O)O [barasertib]
Outline: as §1

[2] = compound: CC[C@@H]1C(=O)N(C)c2cnc(Nc3ccc(C(=O)NC4CCN(C)CC4)cc3OC)nc2N1C1CCCC1
Outline: as §1

volasertib = compound: CC[C@@H]1C(=O)N(C)c2cnc(Nc3ccc(C(=O)N[C@H]4CC[C@H](N5CCN(CC6CC6)CC5)CC4)cc3OC)nc2N1C(C)C [volasertib]
Outline: as §1

[3] = compound: CCn1c(C(=O)N(C2CC2)C2CC2)cc2c3c(ncn3C)c(Nc3cc(C)n(C)n3)nc21
Outline: as §1

[4] = compound: CCn1cc(-c2ccnc3[nH]c(-c4cccc(CN(C)C)c4)cc23)c(-c2ccc(NC(=O)N(C)C)cc2)n1
Outline: as §1

[5] = compound: CN1CCC(CNc2ccc3ncc(-c4cccc(OC(F)(F)F)c4)n3n2)CC1
Outline: as §1

saracatinib = compound: CN1CCN(CCOc2cc(OC3CCOCC3)c3c(Nc4c(Cl)ccc5c4OCO5)ncnc3c2)CC1 [saracatinib]
Outline: as §1

sotrastaurin = compound: CN1CCN(c2nc(C3=C(c4c[nH]c5ccccc45)C(=O)NC3=O)c3ccccc3n2)CC1 [sotrastaurin]
Outline: as §1

alvocidib = compound: CN1CC[C@H](c2c(O)cc(O)c3c(=O)cc(-c4ccccc4Cl)oc23)[C@H](O)C1 [alvocidib]
Outline: as §1

Tubastatin A = compound: CN1CCc2c(c3ccccc3n2Cc2ccc(C(=O)NO)cc2)C1 [Tubastatin A]
Outline: as §1

[6] = compound: CNC(=O)C1=CC=CC=C1NC2=NC(=NC=C2Cl)NC3=C(C=C(C=C3)N4CCOCC4)OC
Outline: as §1

defactinib = compound: CNC(=O)c1ccc(Nc2ncc(C(F)(F)F)c(NCc3nccnc3N(C)S(C)(=O)=O)n2)cc1 [defactinib]
Outline: as §1

[7] = compound: CNc1nc(-c2ccc3c(N)n[nH]c3c2)cc(N2C[C@@H](C(=O)NC3CCCCC3)CC[C@H]2C)n1
Outline: as §1

encorafenib = compound: COC(=O)N[C@@H](C)CNc1nccc(-c2cn(C(C)C)nc2-c2cc(Cl)cc(NS(C)(=O)=O)c2F)n1 [encorafenib]
Outline: as §1

[8] = compound: COC(=O)[C@H](CCSC)NC(=O)C1=C(C=C(C=C1)NC[C@H](CS)N)C2=CC=CC=C2
Outline: as §1

alisertib = compound: COc1cc(Nc2ncc3c(n2)-c2ccc(Cl)cc2C(c2c(F)cccc2OC)=NC3)ccc1C(=O)O [alisertib]
Outline: as §1

[9] = compound: COc1cc2nc(-c3cc(F)ccc3O)nc(N[C@@H]3CNC[C@H]3C(C)(C)O)c2cc1OC
Outline: as §1

gefitinib = compound: COc1cc2ncnc(Nc3ccc(F)c(Cl)c3)c2cc1OCCCN1CCOCC1 [gefitinib]
Outline: as §1

Target | log2 fold change (vemurafenib) | log2 fold change [1] | log2 fold change (barasertib) | log2 fold change [2] | log2 fold change (volasertib) | log2 fold change [3] | log2 fold change [4] | log2 fold change [5] | log2 fold change (saracatinib) | log2 fold change (sotrastaurin) | log2 fold change (alvocidib) | log2 fold change (Tubastatin A) | log2 fold change [6] | log2 fold change (defactinib) | log2 fold change [7] | log2 fold change (encorafenib) | log2 fold change [8] | log2 fold change (alisertib) | log2 fold change [9] | log2 fold change (gefitinib)
CRABP2 (UniProt P29373) | inactive: 0.128 | inactive: 0.007 | inactive: 0.528 | inactive: -0.139 | inactive: 0.026 | inactive: -0.005 | inactive: 0.089 | inactive: -0.003 | inactive: 0.092 | inactive: 0.001 | inactive: -0.025 | inactive: -0.116 | inactive: -0.04 | inactive: -0.015 | inactive: 0.006 | inactive: -0.209 | inactive: 0.082 | inactive: -0.109 | inactive: -0.018 | inactive: 0.01
COL6A5 (UniProt A8TX70) | inactive: 0.073 | inactive: 0.041 | inactive: 0.09 | inactive: 0.078 | inactive: -0.044 | inactive: -0.055 | active: -0.834 | inactive: 0.374 | inactive: -0.048 | inactive: -0.03 | inactive: -0.544 | inactive: 0.029 | inactive: -0.048 | inactive: -0.111 | inactive: 0.256 | inactive: -0.088 | inactive: 0.1 | inactive: -0.038 | inactive: 0.07 | inactive: -0.034
CORO1B (UniProt Q9BR76) | inactive: 0.002 | inactive: 0.016 | inactive: 0.009 | inactive: -0.016 | inactive: -0.009 | inactive: -0.009 | inactive: -0.054 | inactive: 0.032 | inactive: 0.009 | inactive: 0.003 | inactive: 0.012 | inactive: 0.03 | inactive: 0.005 | inactive: 0.01 | inactive: 0.021 | inactive: -0.016 | inactive: 0.056 | inactive: 0.019 | inactive: 0.011 | inactive: -0.007
COLGALT1 (UniProt Q8NBJ5) | inactive: -0.01 | inactive: 0.013 | inactive: 0.02 | inactive: -0.025 | inactive: 0.004 | inactive: 0.003 | inactive: -0.038 | inactive: 0.043 | inactive: -0.006 | inactive: 0.028 | inactive: -0.021 | inactive: -0.037 | inactive: 0.016 | inactive: 0.02 | inactive: 0.008 | inactive: 0.035 | inactive: -0.018 | inactive: -0.007 | inactive: 0.021 | inactive: 0.031
COPS4 (UniProt Q9BT78) | inactive: -0.047 | inactive: 0 | inactive: 0.152 | inactive: -0.006 | inactive: 0.01 | inactive: 0.024 | inactive: 0.008 | inactive: -0.029 | inactive: -0.002 | inactive: -0.018 | inactive: 0.018 | inactive: -0.006 | inactive: 0.001 | inactive: 0.002 | inactive: 0.003 | inactive: -0.019 | inactive: -0.033 | inactive: -0.007 | inactive: -0.012 | inactive: -0.033
COA1 (UniProt Q9GZY4) | inactive: 0.033 | inactive: 0.016 | inactive: 0.022 | inactive: 0.025 | inactive: -0.001 | inactive: -0.04 | inactive: -0.089 | inactive: -0.105 | inactive: -0.04 | inactive: 0.051 | inactive: 0.037 | inactive: 0.031 | inactive: -0.016 | inactive: -0.051 | inactive: 0.081 | inactive: 0.007 | inactive: -0.001 | inactive: 0.031 | inactive: -0.058 | inactive: 0
CNOT4 isoform 6 (UniProt O95628) | inactive: -0.052 | inactive: 0.008 | inactive: -0.014 | inactive: 0.057 | inactive: 0.009 | inactive: 0.108 | inactive: -0.053 | inactive: 0 | inactive: 0.057 | inactive: -0.005 | inactive: 0.015 | inactive: -0.011 | inactive: -0.009 | inactive: 0.001 | inactive: -0.069 | inactive: 0.076 | inactive: -0.051 | inactive: -0.003 | inactive: -0.041 | inactive: -0.007
COPS6 (UniProt Q7L5N1) | inactive: -0.137 | inactive: -0.005 | inactive: 0.094 | inactive: -0.058 | inactive: -0.015 | inactive: 0.1 | inactive: 0.014 | inactive: 0.018 | inactive: -0.004 | inactive: -0.014 | inactive: 0.007 | inactive: -0.012 | inactive: 0.006 | inactive: 0.047 | inactive: -0.066 | inactive: 0.004 | inactive: -0.032 | inactive: 0.003 | inactive: -0.062 | inactive: 0.037
